Screen size: about 300,000 compounds; about 3,700 (1.2%) were called active. Inconclusive means that the source gave no clear call. Such entries were picked first, then a sample of the others. Calls come from the whole dose curve; tested in HEK293 cells. Potencies of inconclusive entries are doubtful fits and often do not repeat.
experiment: qHTS for Inhibitors of binding or entry into cells for Lassa Virus; conditions: Lassa virus pseudotype entry inhibition, cell reporter; activity change, negative = inhibition: at 37.9 µM (top of the series) unless noted; note: nearly all actives have a fitted effect of over 50% in size
% is set by controls: 0 for no effect and ±100 for the full control effect; potency is the fitted concentration of half-maximal effect.

| Structure (SMILES) | activity change, negative = inhibition | Potency |
| --- | --- | --- |
| CN(c1ccccc1)c1nc(N)c([N+](=O)[O-])c(NCc2ccccc2)n1 | inactive: 1.13% |  |
| Cc1cc2nc(/N=C(\N)NC(=O)C(C)C)nc(C)c2cc1C |  | inconclusive: 1.26 µM [inhibitor, single point] |
| COc1ccc(O)c(C=Nc2cc(NC(C)=O)c(Cl)cc2Cl)c1 |  | inconclusive: 3.55 µM [inhibitor, single point] |
| CCCCC(=O)N1CCCC(C)C1 (stereo unspecified) | inactive: -6.13% |  |
| Clc1ccc2c(c1)C(c1ccccc1Cl)=NCc1nnc(N3CCN(CCOc4ccccc4)CC3)n1-2 |  | inconclusive: 18.4 µM [inhibitor, single point] |
| O=c1c2cc(NC(=S)NC3CCCC3)ccc2nc2n1CCCCC2 |  | inconclusive: 35.5 µM [activator, single point] |
| CCOc1ccc(C2CC(=O)N(Nc3ccc([N+](=O)[O-])cc3[N+](=O)[O-])C2=O)cc1 (stereo unspecified) |  | inconclusive: 25.1 µM [activator, single point] |
| CCOC(=O)c1cc(=O)cc(C(=O)OCC)o1 |  | inconclusive: 9.2 µM [activator, partial curve] |
| Cc1ccnc(N2C(=O)CSC2c2ccc(Cl)cc2)c1 (stereo unspecified) |  | inconclusive: 1.12 µM [activator, full curve] |
| Nc1nnc(/C=C/c2ccccc2)s1 | inactive: 11.5% |  |
| CCN(C(=O)COC(=O)/C=C/c1ccccc1Cl)c1c(N)n(Cc2ccccc2)c(=O)[nH]c1=O |  | inconclusive: 35.5 µM [inhibitor, single point] |
| Cc1ccc(Oc2ncccc2/C=N/O)cc1 | inactive: 22.5% |  |
| Cc1cc(C)c2c(=O)cc(C(=O)Nc3c(C)n(C)n(-c4ccccc4)c3=O)oc2c1 | inactive: 21.1% [at 46.1 µM] |  |
| CCOc1ccc(-c2cc3c(=O)n(CC(=O)Nc4cc(F)ccc4C)ccn3n2)cc1 |  | inconclusive: 35.5 µM [activator, partial curve, poor fit] |
| Cn1cc(NC(=O)CCl)cn1 |  | inconclusive: 35.5 µM [inhibitor, single point] |
| CC(C)COP(=O)(c1ccc(N(C)C)cc1)C(O)c1ccccc1F (stereo unspecified) | inactive: 5.71% |  |
| Cc1cccc(NC(=S)N2CCn3cccc3C2c2cccnc2)c1 (stereo unspecified) | inactive: -2.72% |  |
| CC(=O)c1ccc(N2CC(C)(C)C2=O)cc1 | inactive: -1.09% [at 46.1 µM] |  |
| COC(=O)c1cccc(NC(=O)NC23CC4CC(CC(C4)C2)C3)c1 |  | inconclusive: 35.5 µM [inhibitor, single point] |
| Cc1sc(NC(=O)c2ccco2)nc1-c1ccc2c(c1)CC(C)N2C(=O)C1CC1 (stereo unspecified) |  | active: 9.2 µM |
| O=S(=O)(c1ccc2c(c1)OCCO2)N1CCN(c2cccc(Cl)c2)CC1 |  | inconclusive: 14.1 µM [inhibitor, single point] |
| CCCc1cc(=O)[nH]c2nnc(SCC(=O)Nc3ccc(C(C)=O)cc3)n12 | inactive: 9.23% |  |
| COc1ccc(CCN=C(N)NS(=O)(=O)c2ccc(OC)cc2)cc1 | inactive: -22.9% |  |
| COc1cccc(-c2nnc(SC(C(=O)c3c[nH]c4ccccc34)c3ccccc3)n2C)c1 (stereo unspecified) |  | inconclusive: 11.2 µM [inhibitor, partial curve] |

| Structure (SMILES) | activity change, negative = inhibition | Potency |
| --- | --- | --- |
| CCOc1ccc(NC(=O)c2ccccn2)cc1 |  | active: 0.282 µM |
| Cc1ccc(Cl)cc1NC(=S)N1CCC(c2ccccc2)C1 (stereo unspecified) |  | inconclusive: 12.6 µM [inhibitor, partial curve, poor fit] |
| O=C(c1cc(COc2ccc(F)c(F)c2)on1)N1CCSCC1 |  | inconclusive: 0.112 µM [inhibitor, full curve, poor fit] |
| C/C(=N\NC1=NCCN1)c1ccc(Cl)cc1 |  | inconclusive: 7.08 µM [activator, partial curve, poor fit] |
| CC(=O)N(O)CCCCCNC(=O)CCC(=O)N(O)CCCCCNC(=O)CCC(=O)N(O)CCCCCN |  | inconclusive: 14.6 µM [inhibitor, partial curve, poor fit] |
| COC(=O)N/N=C/c1cc(Cl)c(OCc2ccc(F)cc2)c(OC)c1 |  | inconclusive: 0.355 µM [inhibitor, full curve, poor fit] |
| Cc1csc(NC(=O)c2cc3c(s2)CCC3)n1 |  | inconclusive: 11.2 µM [inhibitor, partial curve] |
| CCOC(=O)CSc1nnc(NC(=O)C2CC(=O)N(c3ccc(F)cc3)C2)s1 (stereo unspecified) |  | inconclusive: 1.26 µM [activator, single point] |
| Cc1ccc2nc(C)cc(C(=O)N3CCCC(CO)(Cc4ccccc4C)C3)c2c1 (stereo unspecified) |  | inconclusive: 10 µM [inhibitor, partial curve, poor fit] |
| COC(=O)[C@H](C)NC(=O)NCCC1=CCCCC1 |  | inconclusive: 35.5 µM [inhibitor, single point] |
| CNc1ncc(C(=O)C(C)(C)C)s1 | inactive: 2.63% |  |
| O=C(Cn1ncc(Cl)c(Cl)c1=O)N1CCN(S(=O)(=O)c2ccc3ccccc3c2)CC1 |  | inconclusive: 28.2 µM [inhibitor, single point] |
| CCOC(=O)c1cc2c(=O)c3cc(C)ccc3oc2nc1C | inconclusive: 45.1% [activator] [at 46.1 µM] |  |
| CCn1c(-c2ccc(N(C)C)cc2)nc2ccccc21 |  | inconclusive: 29.1 µM [inhibitor, single point] |
| O=C(/C=C/c1ccc(S(=O)(=O)N2CCOCC2)cc1)NC(=S)NCCCn1ccnc1 |  | inconclusive: 20 µM [inhibitor, partial curve, poor fit] |
| COc1ccc(-c2nnc3ccc(SC(C(C)=O)C(C)=O)nn23)cc1OC | inactive: 4.5% |  |
| CCOC(=O)C1CCN(C(=O)Cn2ncc3c4ccccc4n(Cc4ccc(F)cc4)c3c2=O)CC1 |  | inconclusive: 35.5 µM [inhibitor, partial curve, poor fit] |
| COc1cc2c(cc1NC(=O)CSc1ccc(Cl)cc1)oc1ccccc12 | inactive: 4.88% |  |
| O=C(NCCCc1ccccc1)c1cccc(NC(=O)C2CCC2)c1 |  | inconclusive: 14.1 µM [inhibitor, partial curve, poor fit] |
| COc1ccc(OCc2cc(C(=O)N3CCCC(O)C3)no2)c2ccccc12 (stereo unspecified) | inactive: -15.6% |  |
| COc1ccc(Nc2nc(NCc3ccco3)nc(N/N=C/c3ccccc3)n2)cc1 | inactive: -15.2% |  |
| Nc1nc(SCC(=O)Nc2ccccc2)nc2nc3c(cc12)CCCC3 |  | inconclusive: 0.708 µM [activator, single point] |
| COc1ccc(OC(C)C(=O)N2CCc3ccccc3C2)cc1 (stereo unspecified) |  | inconclusive: 10 µM [inhibitor, partial curve, poor fit] |
| CC(C)C(=O)NC(=S)Nc1sc2c(c1C(N)=O)CCCC2 | inactive: 0.574% |  |

Quoted from the listing:
Potency with CC(=O)N(O)CCCCCNC(=O)CCC(=O)N(O)CCCCCNC(=O)CCC(=O)N(O)CCCCCN reads inconclusive: 14.6 µM [inhibitor, partial curve, poor fit]
Potency with Cc1csc(NC(=O)c2cc3c(s2)CCC3)n1 reads inconclusive: 11.2 µM [inhibitor, partial curve]
activity change, negative = inhibition with COc1ccc(Nc2nc(NCc3ccco3)nc(N/N=C/c3ccccc3)n2)cc1 reads inactive: -15.2%

Continuation.

| Structure (SMILES) | activity change, negative = inhibition | Potency |
| --- | --- | --- |
| CC(=O)Nn1cnc2c(c1=O)C1(CCCCC1)Cc1ccccc1-2 |  | inconclusive: 2.51 µM [inhibitor, partial curve, poor fit] |
| O=C(c1ccc2c(c1)N(Cc1ccc(F)cc1)C(=O)c1ccccc1S2(=O)=O)N1CCN(Cc2ccccc2)CC1 |  | inconclusive: 12.6 µM [inhibitor, partial curve, poor fit] |
| COc1ccc(-c2nc(SCC(=O)Nc3ccc4c(c3)OCCO4)c(-c3ccc(F)cc3)[nH]2)cc1OC |  | inconclusive: 31.6 µM [inhibitor, partial curve, poor fit] |
| CC(=O)c1cccc(NC(=O)C2CCCN(C(=O)c3cnn(-c4ccccc4)c3-n3cccc3)C2)c1 (stereo unspecified) | inactive: -0.128% [at 46.1 µM] |  |
| O=C(CSc1nc2ccccc2s1)NCCOc1ccc(Cl)cc1 | inactive: 6.38% |  |
| COc1ccc(-c2cc(-c3ccccc3)nc(Cl)n2)cc1OC |  | inconclusive: 22.4 µM [inhibitor, single point] |
| O=C(Nc1ccc(N2CCN(C(=O)c3ccc(Cl)cc3)CC2)cc1)c1ccc2c(c1)OCCO2 |  | inconclusive: 20.6 µM [inhibitor, partial curve, poor fit] |
| COc1ccc(C2Nc3cccc4cccc(c34)N2)cc1Br | inactive: -0.516% |  |
| Clc1cc2c(cc1/C=N/Nc1nc(N3CCOCC3)nc(N3CCOCC3)n1)OCO2 | inactive: 0.595% [at 46.1 µM] |  |
| Cc1[nH]c2ccccc2c1C1=CC(=O)C=CC1=O |  | inconclusive: 35.5 µM [inhibitor, single point] |
| COc1ccc(CCN(C)c2ccc(C(N)=O)cc2[N+](=O)[O-])cc1OC |  | inconclusive: 7.08 µM [inhibitor, full curve, poor fit] |
| Cc1cc(Nc2nc(Cl)c(Cl)cc2Cl)n(-c2ccccc2)n1 | inactive: -7.76% |  |
| Cc1csc2nc(O)c(C(=O)NCC3CCCO3)c(=O)n12 (stereo unspecified) | inactive: 0.223% |  |
| C/C(=N\NC(=O)c1c(Cl)c(C)nn1C)c1cccc(NC(=O)c2cccc(F)c2)c1 |  | inconclusive: 35.5 µM [inhibitor, single point] |
| CCC(CC)C(=O)Nc1ccc2nc(SCC(=O)N3CCc4ccccc43)sc2c1 | inactive: -12.6% [at 46.1 µM] |  |
| c1ccc(OCCSc2nc3ccccc3[nH]2)cc1 |  | inconclusive: 35.5 µM [activator, single point] |
| Cc1ccc(CNC(=O)CN(c2cccc(C)c2C)S(=O)(=O)c2ccccc2)cc1 |  | inconclusive: 22.4 µM [inhibitor, single point] |
| CCc1ccc(NC(=O)Cc2c(C(=O)O)n(C)c3ccccc23)cc1 | inactive: 0.553% [at 46.1 µM] |  |
| COc1ccc(OC)c(NC(=O)c2cc(-c3cc(C)ccc3O)n[nH]2)c1 |  | inconclusive: 35.5 µM [inhibitor, single point] |
| Cc1cccc(C)c1NC1=NC(C)(C)N=C(N)N1 |  | inconclusive: 0.0651 µM [activator, partial curve, poor fit] |
| C=CCOc1c(CNC2CCCC2)cc(Cl)cc1OC |  | inconclusive: 2 µM [inhibitor, partial curve, poor fit] |
| O=C(O)CSCC(=O)N1CCCN(c2nc3ccc(Cl)cc3s2)CC1 | inactive: 5.82% |  |
| CCc1cc(=O)oc2c(CNCc3ccc(OC)cc3OC)c(O)c(Cl)cc12 |  | inconclusive: 3.98 µM [inhibitor, single point] |

From PubChem BioAssay AID540256 (National Center for Advancing Translational Sciences (NCATS), 2011)
